Data as given in PubChem BioAssay AID1259308 (NCATS, 2017)

- Aim: 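Genes whose loss raises luciferase production in HEK293 cells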 (primary screen)
- Cells: human HEK293 embryonic kidney cells stably expressing firefly luciferase (HEK-CMV-Luc2-Hygro)
- Knock-down reagent: single siRNA against human genes, 0.8 pmol siRNA per well
- Duration: 72 h
- Measured: 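Reporter luminescence and viable-cell signal on separate replicate plates, given as percent of non-targeting control and median/MAD z-scores, plus per-cell luciferase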
- Scale: total luciferase, z-score and total luciferase, % of control: higher = more reporter protein produced
- Hit rule: 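Active when the median/MAD z-score for overall luciferase is greater than 3; a gene was taken forward for validation with new siRNAs if at least two of its three siRNAs passed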
- Calls: active = raised luciferase; inactive = no rise
In all, the deposit lists about 59,000 reagents; below is a part drawn at random. In the full data, about 1,510 (2.6%) got an active call. 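Calls use total luciferase alone and ignore viability, so some active siRNAs may act by altering cell number.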 The numbers tell different reagents against one gene apart. Further read-outs or replicates are left out here. No sequences are given here.

FAM81A (family with sequence similarity 81 member A) #1 → total luciferase, z-score = 0.485; total luciferase, % of control = 91.5; call = inactive
FAM81A (family with sequence similarity 81 member A) #2 → total luciferase, z-score = -0.00853; total luciferase, % of control = 81.7; call = inactive
FAM81A (family with sequence similarity 81 member A) #3 → total luciferase, z-score = 0.469; total luciferase, % of control = 91.2; call = inactive
RBM44 (RNA binding motif protein 44) #1 → total luciferase, z-score = -0.621; total luciferase, % of control = 69.5; call = inactive
RBM44 (RNA binding motif protein 44) #2 → total luciferase, z-score = -0.573; total luciferase, % of control = 70.5; call = inactive
RBM44 (RNA binding motif protein 44) #3 → total luciferase, z-score = -1.03; total luciferase, % of control = 61.4; call = inactive
PARK7 (Parkinsonism associated deglycase) #1 → total luciferase, z-score = 0.0177; total luciferase, % of control = 82.2; call = inactive
PARK7 (Parkinsonism associated deglycase) #2 → total luciferase, z-score = 0.159; total luciferase, % of control = 85.1; call = inactive
PARK7 (Parkinsonism associated deglycase) #3 → total luciferase, z-score = -0.0449; total luciferase, % of control = 81; call = inactive
E2F4 (E2F transcription factor 4) #1 → total luciferase, z-score = 0.0241; total luciferase, % of control = 82.4; call = inactive
E2F4 (E2F transcription factor 4) #2 → total luciferase, z-score = 1.14; total luciferase, % of control = 105; call = inactive
E2F4 (E2F transcription factor 4) #3 → total luciferase, z-score = 0.303; total luciferase, % of control = 87.9; call = inactive
BLM (BLM RecQ like helicase) #1 → total luciferase, z-score = 0.565; total luciferase, % of control = 93.1; call = inactive
BLM (BLM RecQ like helicase) #2 → total luciferase, z-score = 0.562; total luciferase, % of control = 93.1; call = inactive
BLM (BLM RecQ like helicase) #3 → total luciferase, z-score = -1.25; total luciferase, % of control = 56.9; call = inactive

Already shown: an excerpt of the list.
PARK7 (Parkinsonism associated deglycase) #1 → total luciferase, z-score = 0.0177; total luciferase, % of control = 82.2; call = inactive
PARK7 (Parkinsonism associated deglycase) #2 → total luciferase, z-score = 0.159; total luciferase, % of control = 85.1; call = inactive
PARK7 (Parkinsonism associated deglycase) #3 → total luciferase, z-score = -0.0449; total luciferase, % of control = 81; call = inactive
E2F4 (E2F transcription factor 4) #1 → total luciferase, z-score = 0.0241; total luciferase, % of control = 82.4; call = inactive
E2F4 (E2F transcription factor 4) #2 → total luciferase, z-score = 1.14; total luciferase, % of control = 105; call = inactive
E2F4 (E2F transcription factor 4) #3 → total luciferase, z-score = 0.303; total luciferase, % of control = 87.9; call = inactive

Additional records follow:
OR1J2 (olfactory receptor family 1 subfamily J member 2) #1 → total luciferase, z-score = -0.00382; total luciferase, % of control = 81.8; call = inactive
OR1J2 (olfactory receptor family 1 subfamily J member 2) #2 → total luciferase, z-score = 0.786; total luciferase, % of control = 97.5; call = inactive
OR1J2 (olfactory receptor family 1 subfamily J member 2) #3 → total luciferase, z-score = -0.399; total luciferase, % of control = 74; call = inactive
KHDC3L #1 → total luciferase, z-score = 0.0879; total luciferase, % of control = 83.6; call = inactive
KHDC3L #2 → total luciferase, z-score = -0.457; total luciferase, % of control = 72.8; call = inactive
KHDC3L #3 → total luciferase, z-score = 0.9; total luciferase, % of control = 99.8; call = inactive
DNAJC19P9 #1 → total luciferase, z-score = -0.57; total luciferase, % of control = 70.6; call = inactive
DNAJC19P9 #2 → total luciferase, z-score = -0.928; total luciferase, % of control = 63.4; call = inactive
DNAJC19P9 #3 → total luciferase, z-score = -2.04; total luciferase, % of control = 41.2; call = inactive
USP35 (ubiquitin specific peptidase 35) #1 → total luciferase, z-score = -2.12; total luciferase, % of control = 39.7; call = inactive
USP35 (ubiquitin specific peptidase 35) #2 → total luciferase, z-score = -0.668; total luciferase, % of control = 68.6; call = inactive
USP35 (ubiquitin specific peptidase 35) #3 → total luciferase, z-score = 0.144; total luciferase, % of control = 84.7; call = inactive
ERICH1 (glutamate rich 1) #1 → total luciferase, z-score = -0.433; total luciferase, % of control = 73.3; call = inactive
ERICH1 (glutamate rich 1) #2 → total luciferase, z-score = 1.46; total luciferase, % of control = 111; call = inactive
ERICH1 (glutamate rich 1) #3 → total luciferase, z-score = -2.26; total luciferase, % of control = 37; call = inactive
SLC22A4 #1 → total luciferase, z-score = -1.16; total luciferase, % of control = 58.8; call = inactive
SLC22A4 #2 → total luciferase, z-score = 0.405; total luciferase, % of control = 89.9; call = inactive
SLC22A4 #3 → total luciferase, z-score = 0.714; total luciferase, % of control = 96.1; call = inactive
